According to PubChem BioAssay AID192 (DTP/NCI, 2004):
The list is a part of this screen's results and no random one: it gathers tests that were run many times, whatever their T/C, doses with no T/C, and many T/C values between a quarter and a half above the control. Other doses and runs of a compound stand elsewhere. T/C is the treated group as % of the vehicle group. Some entries give survivors of the animals treated and no T/C: the source holds a T/C of zero for them, seemingly a mark for toxic or unscored doses. Some doses without a T/C left all or most animals alive at the check, yet need not have been tolerated: the source hardly ever lists a survival T/C far under the control, and the zero likely stands for such cases as well. Counts of survivors are from the toxicity check (mostly the fifth day) where no day follows; animals may have died later. Schedules are NCI's codes, read here as Q, the interval in days (D) or hours (H), X, the number of doses. For survival time, this PubChem deposit counts one and a half times the control or more as active, and values a quarter to a half above the control carry no call in these data; other NCI protocols may use other cut-offs.

Test system: BDF1 mice, B16 melanoma ip, median survival T/C
Assay: NCI In Vivo Anticancer Drug Screen. Data for tumor model B16 Melanoma (intraperitoneal) in B6D2F1 (BDF1) mice
Conditions: T/C endpoint: median survival time, higher T/C = longer survival
Summary of the method: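 Transplantable tumor model; survival or tumor size measured; reported as T/C, treated over vehicle control.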

[1] = dose: 100.0 mg/kg/injection, schedule: Q01DX009 (ip), vehicle: saline
[2] = dose: 200.0 mg/kg/injection, schedule: Q01DX009 (ip), vehicle: saline
[3] = dose: 400.0 mg/kg/injection, schedule: Q01DX009 (ip), vehicle: saline with Tween-80
[4] = dose: 400.0 mg/kg/injection, schedule: Q01DX009 (ip), vehicle: Klucel (hydroxypropylcellulose) (HPC)
[5] = dose: 200.0 mg/kg/injection, schedule: Q01DX009 (ip), vehicle: saline with Tween-80
[6] = dose: 400.0 mg/kg/injection, schedule: Q01DX009 (ip), vehicle: saline
[7] = dose: 200.0 mg/kg/injection, schedule: Q01DX009 (ip), vehicle: Klucel (hydroxypropylcellulose) (HPC)
[8] = dose: 50.0 mg/kg/injection, schedule: Q01DX009 (ip), vehicle: Klucel (hydroxypropylcellulose) (HPC)
[9] = dose: 100.0 mg/kg/injection, schedule: Q01DX009 (ip), vehicle: Klucel (hydroxypropylcellulose) (HPC)
[10] = dose: 25.0 mg/kg/injection, schedule: Q01DX009 (ip), vehicle: saline
[11] = dose: 50.0 mg/kg/injection, schedule: Q01DX009 (ip), vehicle: saline
[12] = dose: 100.0 mg/kg/injection, schedule: Q01DX009 (ip), vehicle: saline with Tween-80
[13] = dose: 2.5 mg/kg/injection, schedule: Q01DX009 (ip), vehicle: Klucel (hydroxypropylcellulose) (HPC)

With c1cc[c]([Pb]([S]c2nc3ccccc3[nH]2)([c]2ccccc2)[c]2ccccc2)cc1 the survivor count (dose: 3.0 mg/kg/injection, schedule: Q01DX009 (ip), vehicle: Klucel (hydroxypropylcellulose) (HPC)) was 10 of 10, the survivor count (dose: 6.0 mg/kg/injection, schedule: Q01DX009 (ip), vehicle: Klucel (hydroxypropylcellulose) (HPC)) was 10 of 10 and the survivor count (dose: 12.0 mg/kg/injection, schedule: Q01DX009 (ip), vehicle: Klucel (hydroxypropylcellulose) (HPC)) was 8 of 10.
Cc1nn(CCO)c(C)c1N=[N+]([O-])c1c(C)nn(CCO)c1C was tested, and the survivor count (dose: 30.0 mg/kg/injection, schedule: Q01DX011 (ip), vehicle: saline with Tween-80) was 10 of 10 and the survivor count (dose: 60.0 mg/kg/injection, schedule: Q01DX011 (ip), vehicle: saline with Tween-80) was 10 of 10.
In the case of Cc1ccc(N(CCCl)CCCl)cc1NC(=O)c1ccccc1, the T/C [1] is reported as 145 % of control and the T/C [2] is reported as 145 % of control.
For O=C(Nc1ccc(F)cc1)Nc1ccc(Cl)cc1, the survivor count [3] was 9 of 10.
With Cc1ccc([NH-])c([NH-])c1.[Cl][Pt+2][Cl] the T/C (dose: 2.5 mg/kg/injection, schedule: Q01DX009 (ip), vehicle: saline with Tween-80) was 135 % of control, the survivor count (dose: 10.0 mg/kg/injection, schedule: Q01DX009 (ip), vehicle: saline with Tween-80) was 10 of 10 and the survivor count (dose: 20.0 mg/kg/injection, schedule: Q01DX009 (ip), vehicle: saline with Tween-80) was 8 of 10.
CCC(=O)c1ccccc1N was tested, and the survivor count [4] was 4 of 10.
For CCS(=O)(=O)OCCCl, the survivor count [5] was 0 of 10.
With COC(=O)[C@]1(C)CCC[C@]2(C)[C@H]3CC4OO[C@@]3(CC[C@H]21)[C@H]1O[C@@]41C(C)C the survivor count [3] was 1 of 6.
For CC1(C)C(=O)NC(=O)C1(C)C, the survivor count (dose: 3.12 mg/kg/injection, schedule: Q01DX009 (ip), vehicle: saline) was 10 of 10, the survivor count [1] was 5 of 10 and the survivor count [2] was 0 of 10. The survivor count [6] was 0 of 10.
O=[N+]([O-])c1ccc([S][Pb]([c]2ccccc2)([c]2ccccc2)[c]2ccccc2)cc1 was tested, and the survivor count (dose: 100.0 mg/kg/injection, schedule: Q04DX003 (ip), vehicle: Klucel (hydroxypropylcellulose) (HPC)) was 10 of 10.
In the case of O=c1oc(-c2cccc([N+](=O)[O-])c2)nc2ccccc12, the survivor count [7] is reported as 0 of 10.
For CCCCNC(C)(C)C(SSSC(c1ccco1)C(C)(C)NCCCC)c1ccco1 (stereo not given), the survivor count [8] was 9 of 10, the survivor count [9] was 10 of 10 and the survivor count [7] was 3 of 10.
In the case of NC(=O)Oc1ccccc1, the survivor count [4] is reported as 8 of 10.
In the case of c1cc2cc3c(cc2cc1CC1=NCCc2cc4c(cc21)OCO4)OCO3, the survivor count (dose: 75.0 mg/kg/injection, schedule: Q01DX009 (ip), vehicle: other) is reported as 6 of 10 and the survivor count (dose: 300.0 mg/kg/injection, schedule: Q01DX009 (ip), vehicle: other) is reported as 6 of 10.
With OCC(O)COCC#Cc1ccccc1 (stereo not given) the survivor count (dose: 12.5 mg/kg/injection, schedule: Q01DX009 (ip), vehicle: Klucel (hydroxypropylcellulose) (HPC)) was 10 of 10, the survivor count (dose: 25.0 mg/kg/injection, schedule: Q01DX009 (ip), vehicle: Klucel (hydroxypropylcellulose) (HPC)) was 10 of 10 and the survivor count [9] was 10 of 10.
In the case of COc1ccc(/C=C/c2nc3ccccc3nc2/C=C/c2ccc(OC)c(OC)c2)cc1OC, the survivor count [8] is reported as 10 of 10, the survivor count [9] is reported as 9 of 10 and the survivor count [7] is reported as 8 of 10.
Clc1ccc(CN2COc3c(ccc4cccnc34)C2)cc1Cl was tested, and the survivor count (dose: 12.5 mg/kg/injection, schedule: Q01DX009 (ip), vehicle: saline with Tween-80) was 5 of 10, the survivor count [5] was 10 of 10 and the survivor count [3] was 10 of 10.
In the case of CC(C)NCC(=O)c1ccc(O)c(O)c1, the survivor count [6] is reported as 10 of 10.
For Cc1cc(C)c(NC(=O)N(CCCl)N=O)cc1C, the survivor count (dose: 90.0 mg/kg/injection, schedule: Q01DX009 (ip), vehicle: saline) was 6 of 6 and the survivor count (dose: 180.0 mg/kg/injection, schedule: Q01DX009 (ip), vehicle: saline) was 6 of 6.
In the case of CC(CN1CCN(CCOCCO)CC1)CN1c2ccccc2Sc2ccc(Cl)cc21 (stereo not given), the survivor count (dose: 12.5 mg/kg/injection, schedule: Q01DX009 (ip), vehicle: saline) is reported as 10 of 10, the survivor count [10] is reported as 8 of 10 and the survivor count [11] is reported as 8 of 10.
With Cc1cc(C(C)(CC(C)C)c2ccc(O)c(C)c2)ccc1O the survivor count [12] was 9 of 10.
CN1CCc2cc3c(cc2C1)OCO3 was tested, and the survivor count [2] was 0 of 10.
In the case of O=C(O)C(c1ccccc1)C1CCCC1 (stereo not given), the survivor count [12] is reported as 6 of 6 and the survivor count [5] is reported as 5 of 6.
CCCCNC(=S)S was tested, and the survivor count (dose: 400.0 mg/kg/injection, schedule: Q01DX009 (ip), vehicle: other) was 4 of 10.
With Cc1cc2c3ccccc3ccc2[n+]2ccccc12 the survivor count [10] was 5 of 10 and the survivor count [11] was 1 of 10.
In the case of O=c1ccc(N=Nc2ccccc2)ccc1Cl, the survivor count [13] is reported as 10 of 10, the survivor count (dose: 5.0 mg/kg/injection, schedule: Q01DX009 (ip), vehicle: Klucel (hydroxypropylcellulose) (HPC)) is reported as 10 of 10 and the survivor count (dose: 10.0 mg/kg/injection, schedule: Q01DX009 (ip), vehicle: Klucel (hydroxypropylcellulose) (HPC)) is reported as 9 of 9.
O=C(COc1ccc(Cl)cc1)Nc1cccc(C(F)(F)F)c1 was tested, and the T/C [13] was 136 % of control, the survivor count (dose: 18.8 mg/kg/injection, schedule: Q01DX009 (ip), vehicle: saline with Tween-80) was 10 of 10 and the survivor count (dose: 75.0 mg/kg/injection, schedule: Q01DX009 (ip), vehicle: saline with Tween-80) was 10 of 10. For the same compound, the survivor count (dose: 150.0 mg/kg/injection, schedule: Q01DX009 (ip), vehicle: saline with Tween-80) was 9 of 10.
CC1CCC2(CC1)CCN(CCCN(C)C)CC2 was tested, and the survivor count [2] was 5 of 10.
With CN(C)C1=NC(=O)C(c2ccccc2)O1 (stereo not given) the survivor count [2] was 0 of 10.
COCCNCCN1CCN(CCCN2c3ccccc3Sc3ccc(C(F)(F)F)cc32)CC1 was tested, and the survivor count (dose: 45.0 mg/kg/injection, schedule: Q01DX009 (ip), vehicle: saline) was 7 of 10, the survivor count (dose: 70.0 mg/kg/injection, schedule: Q01DX009 (ip), vehicle: saline) was 1 of 10 and the survivor count (dose: 105.0 mg/kg/injection, schedule: Q01DX009 (ip), vehicle: saline) was 0 of 10.
O=C(O)CSc1nc(-c2ccccc2)c(-c2ccccc2)n1-c1ccccn1 was tested, and the survivor count (dose: 200.0 mg/kg/injection, schedule: Q01DX009 (ip), vehicle: water) was 6 of 10 and the survivor count (dose: 400.0 mg/kg/injection, schedule: Q01DX009 (ip), vehicle: water) was 0 of 10.
For COc1cc(C(=O)OCCCN2CCOCC2)cc(OC)c1OC, the survivor count [10] was 10 of 10, the survivor count [11] was 10 of 10 and the survivor count [1] was 10 of 10. The survivor count [6] was 10 of 10.
With N#CSCc1ccccc1Cl the survivor count (dose: 12.5 mg/kg/injection, schedule: Q04DX003 (ip), vehicle: saline with Tween-80) was 10 of 10, the survivor count (dose: 25.0 mg/kg/injection, schedule: Q01DX009 (ip), vehicle: saline with Tween-80) was 2 of 10 and the survivor count (dose: 25.0 mg/kg/injection, schedule: Q04DX003 (ip), vehicle: saline with Tween-80) was 10 of 10. For the same compound, the survivor count (dose: 50.0 mg/kg/injection, schedule: Q04DX003 (ip), vehicle: saline with Tween-80) was 0 of 10.
For CN(CCN(C)Cc1ccccc1)Cc1ccccc1, the survivor count [1] was 5 of 10.
COC(=O)c1ccc(=O)c2nc3/c(=C/O)c(O)cc(=O)c3[nH]c12 was tested, and the survivor count (dose: 75.0 micrograms/kg/injection, schedule: Q04DX003 (ip), vehicle: saline with Tween-80) was 10 of 10, the survivor count (dose: 150.0 micrograms/kg/injection, schedule: Q04DX003 (ip), vehicle: saline with Tween-80) was 10 of 10 and the survivor count (dose: 300.0 micrograms/kg/injection, schedule: Q04DX003 (ip), vehicle: saline with Tween-80) was 10 of 10.
For CN(C)CCN1C(=O)CC(c2ccccc2)Sc2ccccc21 (stereo not given), the survivor count [11] was 10 of 10.
